{"source": "paper PMC9553925", "target": "T1, ATP synthase subunit-a (T. brucei) (T. brucei (endogenous in procyclic Lister strain 427)) (UniProt P24499)", "T1 sequence": "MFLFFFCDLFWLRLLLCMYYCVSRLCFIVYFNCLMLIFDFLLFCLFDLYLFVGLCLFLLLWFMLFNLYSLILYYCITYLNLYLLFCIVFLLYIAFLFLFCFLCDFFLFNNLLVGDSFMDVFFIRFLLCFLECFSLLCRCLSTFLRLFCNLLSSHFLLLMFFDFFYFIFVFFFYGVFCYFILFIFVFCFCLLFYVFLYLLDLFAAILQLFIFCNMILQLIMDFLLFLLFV", "test": "cryo-EM structure; ATP synthase dimers purified from T. brucei procyclic mitochondria in GDN with added β-DDM and phospholipids, pH 8.0; consensus dimer 3.2 Å, membrane region 2.7 Å, peripheral stalk 3.7 Å, rotor 3.7 Å, ten rotational substates 3.5–4.3 Å; both purified", "note": "Results are given in words; binding and its absence hold for the method and conditions named. Binding can be weak; no strength is given."}
{"substance": "ATP synthase subunit-e (T. brucei)", "values": [{"measurement": "binding", "value": "binds"}]}
